No constants are given. Whether binding was seen depends on the method and setting. In cells and extracts the contact can be indirect. Some entries that bind do so weakly or less than the wild type.
Target: NLRP3 (human (endogenous in THP-1)) (UniProt Q96P20)
Assay: co-IP

Chains of the proteins cited; added tags and fusions are not shown.
UniProt Q96P20: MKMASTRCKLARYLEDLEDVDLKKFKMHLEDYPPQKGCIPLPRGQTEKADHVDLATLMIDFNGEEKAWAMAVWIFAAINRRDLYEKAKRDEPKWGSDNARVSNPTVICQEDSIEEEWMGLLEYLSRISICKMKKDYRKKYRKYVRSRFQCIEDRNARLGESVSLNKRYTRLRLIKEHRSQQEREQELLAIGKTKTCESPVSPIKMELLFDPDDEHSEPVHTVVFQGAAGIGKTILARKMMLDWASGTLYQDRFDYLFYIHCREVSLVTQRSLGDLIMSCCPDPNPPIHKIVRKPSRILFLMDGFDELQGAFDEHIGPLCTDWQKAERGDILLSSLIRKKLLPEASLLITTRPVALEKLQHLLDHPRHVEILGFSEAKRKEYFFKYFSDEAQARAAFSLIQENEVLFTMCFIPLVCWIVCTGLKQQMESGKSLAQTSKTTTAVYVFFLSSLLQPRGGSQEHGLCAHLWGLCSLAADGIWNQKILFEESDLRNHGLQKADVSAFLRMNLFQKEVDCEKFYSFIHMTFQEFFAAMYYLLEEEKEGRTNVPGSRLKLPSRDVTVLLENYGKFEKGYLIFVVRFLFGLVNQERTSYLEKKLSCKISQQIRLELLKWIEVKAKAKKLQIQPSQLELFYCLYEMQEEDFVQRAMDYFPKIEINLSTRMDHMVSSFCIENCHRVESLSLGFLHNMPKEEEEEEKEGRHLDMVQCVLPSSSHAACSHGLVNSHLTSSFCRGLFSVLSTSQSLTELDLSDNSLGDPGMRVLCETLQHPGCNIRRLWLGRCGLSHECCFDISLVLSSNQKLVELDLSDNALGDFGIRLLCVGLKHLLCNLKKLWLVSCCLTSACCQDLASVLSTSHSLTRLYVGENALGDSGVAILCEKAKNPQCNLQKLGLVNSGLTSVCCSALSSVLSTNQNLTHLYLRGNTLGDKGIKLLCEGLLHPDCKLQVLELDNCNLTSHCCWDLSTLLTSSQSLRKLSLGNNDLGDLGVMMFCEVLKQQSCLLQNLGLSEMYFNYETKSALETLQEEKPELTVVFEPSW

binding: binds
B1: NLRP10 (protein, UniProt Q86W26 1-655)
chain: MAMAKARKPREALLWALSDLEENDFKKLKFYLRDMTLSEGQPPLARGELEGLIPVDLAELLISKYGEKEAVKVVLKGLKVMNLLELVDQLSHICLHDYREVYREHVRCLEEWQEAGVNGRYNQVLLVAKPSSESPESLACPFPEQELESVTVEALFDSGEKPSLAPSLVVLQGSAGTGKTTLARKMVLDWATGTLYPGRFDYVFYVSCKEVVLLLESKLEQLLFWCCGDNQAPVTEILRQPERLLFILDGFDELQRPFEEKLKKRGLSPKESLLHLLIRRHTLPTCSLLITTRPLALRNLEPLLKQARHVHILGFSEEERARYFSSYFTDEKQADRAFDIVQKNDILYKACQVPGICWVVCSWLQGQMERGKVVLETPRNSTDIFMAYVSTFLPPDDDGGCSELSRHRVLRSLCSLAAEGIQHQRFLFEEAELRKHNLDGPRLAAFLSSNDYQLGLAIKKFYSFRHISFQDFFHAMSYLVKEDQSRLGKESRREVQRLLEVKEQEGNDEMTLTMQFLLDISKKDSFSNLELKFCFRISPCLAQDLKHFKEQMESMKHNRTWDLEFSLYEAKIKNLVKGIQMNNVSFKIKHSNEKKSQSQNLFSVKSSLSHGPKEEQKCPSVHGQKEGKDNIAGTQKEASTGKGRGTEETPKNTYI

From paper doi:10.1101/2025.03.07.642110
